Laboratory results from PubChem BioAssay AID1347076 (National Center for Advancing Translational Sciences (NCATS), 2019).
The whole screen tested about 400,000 compounds, of which about 13,000 (3.2%) were called active. Inconclusive means that the source gave no clear call. Such entries were picked first, then a sample of the others. The call rests on the fitted dose curve; in most records, active means well fitted cell-killing curve with a large enough effect; inconclusive means small, poorly fitted or top-dose-only effect, or effect the other way; inactive means flat fitted curve, though single readings scatter. Potencies of inconclusive entries are doubtful fits and often do not repeat.

Assay: qHTS assay for MDR1-selective chemotherapeutics: Primary screen using the drug-selected MDR subline cells KB-V1; further: nearly all actives have a fitted effect of over 60% in size
Conditions: KB-V1 MDR cells viability, CellTiter-Glo, 72 h; series mostly up to 46.1 µM
Outline: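 Drug-selected KB-V1 cells, grown in DMEM lacking phenol red with 10% FBS, receive compound titrations; after three days at 37 degrees C, surviving cell ATP is quantified by CellTiter-Glo luminescence and responses normalized and curve-fitted.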
Potency means the concentration at half of the fitted maximal effect.

| SMILES | Potency |
| --- | --- |
| O=C(CNC(=O)c1ccc(OC(F)F)cc1)Nc1cccc(S(=O)(=O)N2CCCC2)c1 | inconclusive: 18.4 µM [cytotoxic, partial curve, poor fit] |
| COC(=O)c1ccccc1NC(=O)COc1ccccc1C(=O)Nc1ccccc1 | inconclusive: 0.651 µM [rising, full curve] |
| c1ccc(-c2cc3nc(NCc4cccs4)nc(NCc4ccc5occc5c4)c3s2)cc1 | inconclusive: 20.6 µM [cytotoxic, single point] |
| Cc1ccc(Nc2cc(C)nc3ccc(C)cc23)cc1 | inactive |
| Cc1cc(Cl)cc(Cl)c1OCCN1CCCC1 | inactive |
| CSc1ccc2c(c1)C(N1CCN(C)CC1)Cc1ccccc1S2 (stereo unspecified) | inactive |
| Cc1cccc(CN2CCN(CC(=O)NCc3ccc(Cl)cc3)C2=O)c1 | inactive |
| O=C(Nc1ccc(OC(F)F)c(Cl)c1)Nc1ccc2c(c1)OCO2 | inconclusive: 20.6 µM [cytotoxic, single point] |
| Cc1ccc(NC(=O)CN(c2ccccc2)S(=O)(=O)N(C)C)cc1 | active: 14.6 µM |
| COc1ccc(C2=C(C)C(=O)N(Cc3ccc(C(=O)NCc4ccc(C)cc4)cc3)S2(=O)=O)cc1 | inconclusive: 23.1 µM [cytotoxic, single point] |
| COCCNC(=O)Cc1c(C)c2c(cc(C)c3c(C(C)(C)C)coc32)oc1=O | inconclusive: 29.1 µM [cytotoxic, single point] |
| O=C(Nc1ccccc1C(=O)O)c1ccc2c(c1)C(=O)N(c1cccc([N+](=O)[O-])c1)C2=O | inconclusive: 25.9 µM [rising, single point] |
| CCOC(=O)c1c(NC(=O)c2cc(C(C)C)on2)sc(C)c1C | inconclusive: 29.1 µM [cytotoxic, single point] |
| COc1ccc(OC)c(NC2=NC3(CCCCC3)N=C(N)N2)c1 | inconclusive: 29.1 µM [rising, single point] |
| COc1cccc(CN(C)C[C@@H]2OCc3ccccc3-c3c(n(C)c4ccccc34)C(=O)N([C@@H](C)CO)C[C@H]2C)c1 | inactive |
| CCOC(=O)c1c(NC(=O)c2ccoc2C)sc(C)c1C | inconclusive: 23.1 µM [cytotoxic, single point] |
| CCCCN(C(=O)c1ccc(-c2ccc(Cl)cc2)o1)c1c(N)n(CCCC)c(=O)[nH]c1=O | inactive |
| Cc1ccccc1NC(=O)Cc1nc(COC(=O)c2nc(Cl)ccc2Cl)cs1 | inactive |
| CC(C)Oc1ccc(Cc2n[nH]c(=S)n2Cc2ccccc2)cc1Cl | inconclusive: 23.1 µM [cytotoxic, single point] |
| COc1ccc(NC(=O)c2ccc(-c3ccc(F)cc3)o2)cc1OC | inconclusive: 16.4 µM [cytotoxic, single point] |
| NC(c1csc(NC(=O)Nc2ccc(OC(F)(F)F)cc2)n1)C1CCCCC1 (stereo unspecified) | inconclusive: 29.1 µM [cytotoxic, single point] |
| Cc1ccc(C(=O)N2CCCC(C(=O)c3ccc(Oc4ccccc4)cc3)C2)cn1 (stereo unspecified) | inconclusive: 6.51 µM [cytotoxic, full curve, poor fit] |
| CCc1nc2c(OCC(=O)c3ccc(Cl)cc3Cl)cccn2c1N(C)C(=O)c1cccs1 | inconclusive: 25.9 µM [cytotoxic, single point] |
| CC(=O)c1nnn(-c2cccc([N+](=O)[O-])c2)c1C | inactive |

| SMILES | Potency |
| --- | --- |
| CC1(C(=O)NS(=O)(=O)c2cccs2)CCN1C(=O)CC1CCCCC1 (stereo unspecified) | inactive |
| CN(C)CCCNC(=O)CC(c1ccc(F)cc1)c1ccco1 (stereo unspecified) | inactive |
| O=C(COc1ccc(F)cc1Br)Nc1ccccc1N1CCCC1 | inactive |
| Cc1ccccc1SCC(=O)OCC(=O)N1CC(=O)Nc2ccccc21 | inconclusive: 20.6 µM [rising, single point] |
| CCc1cc2cc(C)ccc2nc1SCC(=O)N1CC(=O)Nc2ccccc21 | inconclusive: 11.6 µM [cytotoxic, single point] |
| CCN(CC)CCN(Cc1cc2ccc(C)cc2[nH]c1=O)C(=O)Nc1ccc(Cl)cc1 | inactive |
| Cc1cc(NC(=O)CSc2nc(C(C)(C)C)nc3ccccc23)no1 | inconclusive: 2.31 µM [cytotoxic, partial curve, poor fit] |
| CC(=O)c1sc(NC(=O)c2cc(-c3ccccc3)nn2-c2ccccc2)nc1C | inconclusive: 20.6 µM [cytotoxic, single point] |
| COc1ccc2[nH]cc(C(=O)CCl)c2c1 | inconclusive: 29.1 µM [cytotoxic, single point] |
| CC(=O)Nc1ccc(S(=O)(=O)NCCC(=O)NCC2COc3ccccc3O2)cc1 (stereo unspecified) | inconclusive: 20.6 µM [rising, single point] |
| CCN(CC)Cc1nc2c(c(=O)[nH]1)C(CC)(CC)Cc1ccccc1-2 | inconclusive: 6.51 µM [cytotoxic, full curve] |
| C=CCOc1ccc(C(=O)Nc2ccccc2C(=O)NCc2cccnc2)cc1 | active: 3.66 µM |
| Cc1ccc(S(=O)(=O)N2CCOC2CNC(=O)C(=O)NCCCc2ccccc2)cc1 (stereo unspecified) | inconclusive: 29.1 µM [cytotoxic, single point] |
| Cn1cnnc1SCC(=O)NC1CCCCC1 | inactive |
| CCN1C(=O)C(CC(=O)Nc2ccc(F)cc2)N(Cc2ccco2)C1=S (stereo unspecified) | inconclusive: 20.6 µM [cytotoxic, single point] |
| Oc1ccccc1CN1CCC(C(O)(c2ccccc2)c2ccccc2)CC1 | inactive |
| Cc1ccc(NC(=O)CCc2ccc(S(=O)(=O)N3CCOCC3)cc2)c(Cl)c1 | inconclusive: 6.51 µM [cytotoxic, full curve, poor fit] |
| COc1cc(/C=N/NC(=O)CN(Cc2ccccc2)S(=O)(=O)c2ccc3c(c2)OCCO3)ccc1O | inconclusive: 18.4 µM [cytotoxic, single point] |
| COCCNC(=O)C1(C)CCCN(C(=O)c2cc(F)ccc2C)C1 (stereo unspecified) | inactive |
| O=C(Nc1ccc(-c2nc3cc(Cl)ccc3o2)cc1)C1CCCO1 (stereo unspecified) | active: 10.3 µM |
| Cc1cc(C)nc(N/N=C/C(Cl)=C/c2ccccc2)n1 | inconclusive: 3.66 µM [cytotoxic, partial curve, poor fit] |
| Cc1noc(C)c1CSc1nc2ccccc2c(=O)n1-c1ccccc1 | active: 5.8 µM |
| C#CCN(C[C@H]1[C@H](OC(=O)NCCCCCC)[C@H](OC(=O)NCCCCCC)C[C@@H](C(=O)OC)[C@H]1C(=O)OC)S(=O)(=O)c1ccc(C)cc1 | inconclusive: 0.82 µM [rising, full curve] |
| CC(=O)Oc1c(/C=C(\C#N)C(N)=O)[nH]c2ccccc12 | inactive |

| SMILES | Potency |
| --- | --- |
| Cc1sc2nc(CSC(C)C(=O)N(C)CC(=O)Nc3ccccc3C(F)(F)F)[nH]c(=O)c2c1C (stereo unspecified) | inconclusive: 13 µM [cytotoxic, partial curve] |
| COc1ccc(NS(=O)(=O)c2ccc(NC(C)=O)cc2)cc1OC | inconclusive: 10.3 µM [cytotoxic, partial curve] |
| O=C(NCC1CC1)C1(C(F)(F)F)CC(CCCO)CCCO1 (stereo unspecified) | inconclusive: 20.6 µM [rising, partial curve, poor fit] |
| CN(Cc1cccc(F)c1)C(=O)C1CC(=O)N(c2ccc3c(c2)OCCO3)C1 (stereo unspecified) | inactive |
| Cc1c(C(=S)Nc2ccccc2)cnn1-c1ccc([N+](=O)[O-])cc1 | active: 18.4 µM |
| ONC(=Nc1ccccc1)C(=Nc1ccccc1)NO | inconclusive: 29.1 µM [rising, single point] |
| COc1ccc(C(=O)C[n+]2cc(Br)cc3ccccc32)cc1 | inactive |
| O=C(CN1C(=O)CC(c2ccccc2)S(=O)(=O)c2ccccc21)N1CCCC1 (stereo unspecified) | inactive |
| O=C(/C=C/c1cn(CC(O)CN2CCCCC2)c2ccccc12)c1cccs1 (stereo unspecified) | active: 23.1 µM |
| CC1Cc2cc(S(=O)(=O)NCc3ccccc3)ccc2N1C(=O)C1CC1 (stereo unspecified) | inactive |
| COc1ccc(C(=O)c2oc3ccc(OC)cc3c2N)cc1 | inactive |
| Cc1cc(-c2ccccc2)n(-c2ccccc2)n1 | inconclusive: 18.4 µM [rising, single point] |
| COc1cccc(-c2nc3nc(C)cc(C)n3c2NC2CCCCC2)c1 | inconclusive: 7.31 µM [cytotoxic, partial curve] |
| COc1cccc(C2=CC(c3cccc(OC)c3OC)n3nnnc3N2)c1 (stereo unspecified) | inconclusive: 20.6 µM [cytotoxic, single point] |
| CCn1c(SCC(=O)N2CCN(c3ccccc3F)CC2)nnc1-c1ccoc1C | inconclusive: 20.6 µM [cytotoxic, single point] |
| COc1ccc(CNC(=O)C(C)n2ccc3cc(S(=O)(=O)N4CCCC4)ccc32)cc1OC (stereo unspecified) | inactive |
| Cn1c(=O)c2c(nc(N3CCCCC3)n2CCSc2nc3ccccc3s2)n(C)c1=O | inconclusive: 9.2 µM [cytotoxic, partial curve, poor fit] |
| COc1ccccc1NC(=O)C(Cc1ccccc1)NS(=O)(=O)c1ccc2c(c1)c(=O)n(C)c(=O)n2C (stereo unspecified) | inactive |
| C=CCSC1=NN2CCS(=O)(=O)N=C2S1 | inconclusive: 29.1 µM [rising, single point] |
| Cc1c(N=C2N=C(NC(=O)c3ccc(F)cc3)c3ccccc32)c(=O)n(-c2ccccc2)n1C | inconclusive: 16.4 µM [cytotoxic, single point] |
| O=C(OCC1CCCO1)c1ccc2c(c1)N(Cc1ccccc1Cl)C(=O)c1ccccc1S2(=O)=O (stereo unspecified) | inactive |
| CCCN(CCC)Cc1cc(=O)oc2ccc3ccccc3c12 | inconclusive: 29.1 µM [cytotoxic, single point] |
| CC(=O)Nc1cccc(OC(=O)COc2ccc(Br)cc2)c1 | inactive |

A different layout for some results above.
SMILES,Potency
O=C(Nc1ccc(-c2nc3cc(Cl)ccc3o2)cc1)C1CCCO1 (stereo unspecified),active: 10.3 µM
Cc1cc(C)nc(N/N=C/C(Cl)=C/c2ccccc2)n1,"inconclusive: 3.66 µM [cytotoxic, partial curve, poor fit]"
Cc1noc(C)c1CSc1nc2ccccc2c(=O)n1-c1ccccc1,active: 5.8 µM
C#CCN(C[C@H]1[C@H](OC(=O)NCCCCCC)[C@H](OC(=O)NCCCCCC)C[C@@H](C(=O)OC)[C@H]1C(=O)OC)S(=O)(=O)c1ccc(C)cc1,"inconclusive: 0.82 µM [rising, full curve]"
